Assay results reported in patent US20220041753A1 (H LEE MOFFITT CANCER CENTER AND RESEARCH INSTITUTE, published 2022).
Results are given in words; binding and its absence hold for the method and conditions named. Some results given as binding are weak or reduced against the parent protein; the word gives no strength.

Target: T1, ZNRF3 ECD (UniProt Q9ULT6 56-219, limits assumed)
T1 construct: extracellular domain; also called ZNRF3 extracellular domain; fluorescently labeled ZNRF3 ECDs
T1 sequence (looked up): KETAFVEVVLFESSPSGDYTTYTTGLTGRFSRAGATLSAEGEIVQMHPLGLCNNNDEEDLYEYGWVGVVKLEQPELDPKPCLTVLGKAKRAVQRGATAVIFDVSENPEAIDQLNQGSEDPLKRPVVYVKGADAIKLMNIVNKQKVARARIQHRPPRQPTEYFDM
Test: flow cytometry, scFv displayed on yeast, fluorescently labeled ZNRF3 ECD

binding: binds
B1: ZNRF3-specific scFv "Z6" (scFv)
scFv: ASQVQLVQSGAEVKNPGASVKVSCKASGYAFTSYGISWVRQAPGQGLEWMGWISAYTRNTNYAQKFQGRVTLTTDTSTSTAYMELRSLRSDDTAIYYCARDARYSLGVGAFDVWGQGTMVTVSSGILGSGGGGSGGGGSGGGGSETTLTQSPAFMSATPGDKVSISCKASRDIDDDLNWYQQKPGEAAISIIQEATTLVPGIPPRFSGSGYGTDFTLTINNIESEDAAYYFCLQHDDVPYTFGQGTKLEIKSGIL
notes: the display fusion is not described; also called ZNRF3-specific single-chain antibody variable fragment (scFv)
